Results reported in paper PMC5141650.
These are yes or no findings as the source states them, for the method shown. Some binding calls cover weakened binding; strength is not graded here.

T1: NIPI-3 (No induction of peptide after Drechmeria infection 3), full length (C. elegans) (UniProt G5EED4)
T1 sequence: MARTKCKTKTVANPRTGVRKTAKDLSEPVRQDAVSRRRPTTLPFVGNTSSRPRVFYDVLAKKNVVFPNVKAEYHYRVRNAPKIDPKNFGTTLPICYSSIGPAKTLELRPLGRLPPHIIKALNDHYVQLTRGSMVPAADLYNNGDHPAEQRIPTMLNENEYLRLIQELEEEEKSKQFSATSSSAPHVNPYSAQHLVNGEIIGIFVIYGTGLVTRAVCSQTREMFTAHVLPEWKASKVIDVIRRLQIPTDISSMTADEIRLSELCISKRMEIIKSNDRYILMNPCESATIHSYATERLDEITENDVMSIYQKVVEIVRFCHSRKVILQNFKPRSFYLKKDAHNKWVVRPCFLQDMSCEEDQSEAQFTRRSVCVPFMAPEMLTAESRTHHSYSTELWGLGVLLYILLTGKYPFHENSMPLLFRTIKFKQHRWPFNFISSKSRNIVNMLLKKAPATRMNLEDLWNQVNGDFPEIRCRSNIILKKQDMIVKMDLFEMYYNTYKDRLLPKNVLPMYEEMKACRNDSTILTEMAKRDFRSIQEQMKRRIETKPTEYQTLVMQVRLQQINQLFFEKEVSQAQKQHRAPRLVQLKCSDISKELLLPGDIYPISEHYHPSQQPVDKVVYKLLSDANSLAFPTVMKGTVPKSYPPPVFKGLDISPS


How the values were obtained:
[1] = molecular target: T1, NIPI-3 (No induction of peptide after Drechmeria infection 3), full length (C. elegans); test: two-hybrid; yeast two-hybrid screen with the full-length NIPI-3 protein as bait; library and conditions not described
[2] = molecular target: T1, NIPI-3 (No induction of peptide after Drechmeria infection 3), full length (C. elegans); test: two-hybrid; CEBP-1 variants fused to the Gal4 activation domain (pACT2), full-length NIPI-3 fused to the LexA DNA-binding domain (pBTM116); co-transformed into yeast strain L40; interaction read as growth on SD medium lacking leucine, tryptophan and histidine

Binder | binding [1] | binding [2]
CEBP-1 (protein, UniProt Q18909 1-319) MYSKLNYSHQKGDQALKHPHLVRLQQSEVRGFTDMPNNGASTSSAGSFARQDSLTIAASLQQRDRERHPVDFMETELDLGDYLQVLHDLDVPTDNVDFDDAELQKCNILYDGEHPYEQPELNGYERHVAYGTGYRVPGDYDQDGYKMNCEVKAETPDFGATKTRRAVKRPVPYDDYQKEYSEESSDMTDNDGSVDDSYFEPKSKKTKSAGLENFKPQTRARKYKLKADEEKAEPTYKLKRARNNDAVRKSRKKAKELQDKKEAEHDKMKRRIAELEGLLQSERDARRRDQDTLEQLLRNKGPMKEQRMPQRHILENFNK | binds | 
CEBP-1 N-terminal region (amino acids 1-115) (domain or fragment, UniProt Q18909 1-115) MYSKLNYSHQKGDQALKHPHLVRLQQSEVRGFTDMPNNGASTSSAGSFARQDSLTIAASLQQRDRERHPVDFMETELDLGDYLQVLHDLDVPTDNVDFDDAELQKCNILYDGEHP |  | binds
